Measurements reported in PubChem BioAssay AID504786 (Drosophila RNAi Screening Center, 2011).
The deposit covers about 21,000 reagents; this is a random part of those that have a named target and a result. 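Primary screen; positive scores mean lost reporter signal, so the sign may be inverted from the usual convention.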 A plus sign joins genes that one reagent is predicted to hit.

Test: 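Knock-downs reducing HIF reporter induction by the iron chelator DFO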 (primary screen)
Cells: Drosophila S2 cells with a stable HIF luciferase reporter
Knock-down reagent: long dsRNA against Drosophila genes, about 0.2 µg dsRNA per well of a 384-well plate
Timing: three days of knock-down, then 20 h of DFO before reading
Challenge: desferrioxamine (DFO) at 100 µM, an iron chelator that mimics hypoxia, for 20 h
Detection: 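HIF reporter luminescence in cells given 100 µM DFO for 20 h, using the mouse ldh-a hypoxia-response element, scored as per-plate z-scores; higher means greater loss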
Direction: z-score: higher = stronger loss of HIF reporter signal

Which result is listed for lark [DRSC11362]?
z-score, replicate 1: -0.1; z-score, replicate 2: 0.4

For Spn28F [DRSC03615], what does the deposit list?
z-score, replicate 1: -0.2; z-score, replicate 2: -0.3

What did the screen give for CG2256 [DRSC18220]?
z-score, replicate 1: -0.3; z-score, replicate 2: -0.4

What did the screen give for FoxL1 [DRSC08717]?
z-score, replicate 1: 0; z-score, replicate 2: -0.1

For lectin-29Ca [DRSC02635], how do the results read?
z-score, replicate 1: -0.3; z-score, replicate 2: 0.4

For Rad1 + Sws1 [DRSC00778], what does the deposit list?
z-score, replicate 1: 0; z-score, replicate 2: -0.3

For RpL18A [DRSC07538], what was measured?
z-score, replicate 1: 6.4; z-score, replicate 2: 5.9

For CG5440 [DRSC00685], what was measured?
z-score, replicate 1: -0.5; z-score, replicate 2: 0.9

With CoRest [DRSC19881], what does the deposit list?
z-score, replicate 1: 1.8; z-score, replicate 2: 1

How did the screen score Ipk1 [DRSC04235]?
z-score, replicate 1: -0.2; z-score, replicate 2: -0.3

Which result is listed for Ipk1 [DRSC04236]?
z-score, replicate 1: -0.2; z-score, replicate 2: 0.5

What did the screen give for Ipk1 [DRSC04237]?
z-score, replicate 1: -0.4; z-score, replicate 2: -0.7

For DCX-EMAP [DRSC10012], what does the deposit list?
z-score, replicate 1: -0.3; z-score, replicate 2: 0.3

With DCX-EMAP [DRSC10013], what does the deposit list?
z-score, replicate 1: 0.7; z-score, replicate 2: 0.6

Which result is listed for spz6 [DRSC04533]?
z-score, replicate 1: 0.1; z-score, replicate 2: 0.3

How did the screen score CG10962 [DRSC18421]?
z-score, replicate 1: -0.3; z-score, replicate 2: -0.4

For Rev1 [DRSC08264], what was measured?
z-score, replicate 1: 0; z-score, replicate 2: 0.1

With ARY (retired record) [DRSC20867], what does the deposit list?
z-score, replicate 1: -0.1; z-score, replicate 2: -0.2

What is on record for CG9759 [DRSC16558]?
z-score, replicate 1: -0.3; z-score, replicate 2: -0.2

With CG12849 [DRSC04129], what does the deposit list?
z-score, replicate 1: -0.1; z-score, replicate 2: -0.4

For Dna2 [DRSC18254], what does the deposit list?
z-score, replicate 1: -0.3; z-score, replicate 2: -0.4

How did the screen score Send2 [DRSC01906]?
z-score, replicate 1: -0.4; z-score, replicate 2: -0.4

With CG18823 [DRSC18168], how do the results read?
z-score, replicate 1: -0.4; z-score, replicate 2: -0.6

For CG30373 [DRSC05081], what was measured?
z-score, replicate 1: -0.2; z-score, replicate 2: -0.1

With Rab9Db + Rab9Fa [DRSC18445], how do the results read?
z-score, replicate 1: -0.3; z-score, replicate 2: -1

What did the screen give for pont [DRSC17029]?
z-score, replicate 1: 3.9; z-score, replicate 2: 4.5

What is on record for CG3078 [DRSC18531]?
z-score, replicate 1: -0.3; z-score, replicate 2: -1

What is on record for CG5466 [DRSC15808]?
z-score, replicate 1: 3.7; z-score, replicate 2: 1.1

What did the screen give for CG2017 [DRSC12293]?
z-score, replicate 1: -0.4; z-score, replicate 2: -0.4

With unc-45 [DRSC15449], what does the deposit list?
z-score, replicate 1: -0.3; z-score, replicate 2: -0.9

With Uch-L5 [DRSC11314], how do the results read?
z-score, replicate 1: -0.3; z-score, replicate 2: -0.3

How did the screen score Mob2 [DRSC09117]?
z-score, replicate 1: -0.1; z-score, replicate 2: -0.3

What is on record for Mob2 [DRSC09119]?
z-score, replicate 1: -0.4; z-score, replicate 2: -0.9

What did the screen give for Mob2 [DRSC09856]?
z-score, replicate 1: -0.4; z-score, replicate 2: -0.9

With ppk7 [DRSC03236], what does the deposit list?
z-score, replicate 1: -0.1; z-score, replicate 2: -0.5

For sni [DRSC17770], what does the deposit list?
z-score, replicate 1: -0.2; z-score, replicate 2: -0.3

With CG17508 [DRSC07771], what was measured?
z-score, replicate 1: -0.3; z-score, replicate 2: -0.2

With CG14142 [DRSC10145], how do the results read?
z-score, replicate 1: -0.2; z-score, replicate 2: -0.4

With CG42500 [DRSC14822], how do the results read?
z-score, replicate 1: -0.2; z-score, replicate 2: -1.2

What is on record for spag [DRSC04717]?
z-score, replicate 1: -0.2; z-score, replicate 2: -0.1

What did the screen give for CG11619 [DRSC09849]?
z-score, replicate 1: -0.2; z-score, replicate 2: -0.4

What did the screen give for CG4617 [DRSC18377]?
z-score, replicate 1: -0.4; z-score, replicate 2: -0.3

What did the screen give for RPA1 [DRSC16830]?
z-score, replicate 1: -0.3; z-score, replicate 2: 0

Which result is listed for tal-1A + tal-2A + tal-AA + 1 more [DRSC12992]?
z-score, replicate 1: 0; z-score, replicate 2: 0

For CG10089 [DRSC09694], what does the deposit list?
z-score, replicate 1: 0.1; z-score, replicate 2: -0.2

What did the screen give for CG10089 [DRSC09695]?
z-score, replicate 1: -0.1; z-score, replicate 2: -0.2

For Rpn9 [DRSC16840], what was measured?
z-score, replicate 1: -0.2; z-score, replicate 2: -0.4

For E(bx) [DRSC08172], how do the results read?
z-score, replicate 1: -0.3; z-score, replicate 2: 0.8

What is on record for E(bx) [DRSC08509]?
z-score, replicate 1: -0.2; z-score, replicate 2: 1.1

For E(bx) [DRSC08583], what does the deposit list?
z-score, replicate 1: -0.2; z-score, replicate 2: 0.2

What did the screen give for Wnt4 [DRSC00976]?
z-score, replicate 1: -0.7; z-score, replicate 2: 0.1

With Wnt4 [DRSC03477], what was measured?
z-score, replicate 1: -0.2; z-score, replicate 2: 0

7 of these entries, reformatted:
DCX-EMAP [DRSC10013]
- z-score, replicate 1: 0.7
- z-score, replicate 2: 0.6

spz6 [DRSC04533]
- z-score, replicate 1: 0.1
- z-score, replicate 2: 0.3

CG10962 [DRSC18421]
- z-score, replicate 1: -0.3
- z-score, replicate 2: -0.4

Rev1 [DRSC08264]
- z-score, replicate 1: 0
- z-score, replicate 2: 0.1

ARY (retired record) [DRSC20867]
- z-score, replicate 1: -0.1
- z-score, replicate 2: -0.2

CG9759 [DRSC16558]
- z-score, replicate 1: -0.3
- z-score, replicate 2: -0.2

CG12849 [DRSC04129]
- z-score, replicate 1: -0.1
- z-score, replicate 2: -0.4
